No constants are given. Whether binding was seen depends on the method and setting. Some results given as binding are weak or reduced against the parent protein; the word gives no strength.
Tests used:
[1] = target: Rpt5 ATPase subunit of the human 26S proteasome (human (endogenous in HEK293)) (UniProt P17980); experiment: cross-linking
[2] = target: Rpn1 non-ATPase subunit of the human 26S proteasome (human (endogenous in HEK293)) (UniProt Q13200); experiment: cryo-EM structure
[3] = target: Rpt1 ATPase subunit of the human 26S proteasome (human (endogenous in HEK293)) (UniProt P35998); experiment: cryo-EM structure
[4] = target: Rpt5 ATPase subunit of the human 26S proteasome (human (endogenous in HEK293)) (UniProt P17980); experiment: cryo-EM structure
[5] = substrate: CP subunit α7 of the human 26S proteasome (human (endogenous in HEK293)) (UniProt P25788); experiment: cryo-EM structure

By UniProt entry, the sequences of proteins in these tests, tags left out.
UniProt P17980: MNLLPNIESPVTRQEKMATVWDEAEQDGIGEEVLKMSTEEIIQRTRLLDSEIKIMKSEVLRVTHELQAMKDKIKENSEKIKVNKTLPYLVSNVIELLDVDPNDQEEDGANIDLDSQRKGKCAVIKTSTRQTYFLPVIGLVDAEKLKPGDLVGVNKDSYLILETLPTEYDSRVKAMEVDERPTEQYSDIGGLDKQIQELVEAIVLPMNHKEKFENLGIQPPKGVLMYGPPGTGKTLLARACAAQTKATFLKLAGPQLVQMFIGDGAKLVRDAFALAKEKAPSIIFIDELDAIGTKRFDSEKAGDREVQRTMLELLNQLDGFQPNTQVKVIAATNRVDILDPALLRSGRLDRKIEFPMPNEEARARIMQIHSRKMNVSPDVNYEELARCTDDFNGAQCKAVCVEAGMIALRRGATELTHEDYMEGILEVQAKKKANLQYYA
UniProt Q13200: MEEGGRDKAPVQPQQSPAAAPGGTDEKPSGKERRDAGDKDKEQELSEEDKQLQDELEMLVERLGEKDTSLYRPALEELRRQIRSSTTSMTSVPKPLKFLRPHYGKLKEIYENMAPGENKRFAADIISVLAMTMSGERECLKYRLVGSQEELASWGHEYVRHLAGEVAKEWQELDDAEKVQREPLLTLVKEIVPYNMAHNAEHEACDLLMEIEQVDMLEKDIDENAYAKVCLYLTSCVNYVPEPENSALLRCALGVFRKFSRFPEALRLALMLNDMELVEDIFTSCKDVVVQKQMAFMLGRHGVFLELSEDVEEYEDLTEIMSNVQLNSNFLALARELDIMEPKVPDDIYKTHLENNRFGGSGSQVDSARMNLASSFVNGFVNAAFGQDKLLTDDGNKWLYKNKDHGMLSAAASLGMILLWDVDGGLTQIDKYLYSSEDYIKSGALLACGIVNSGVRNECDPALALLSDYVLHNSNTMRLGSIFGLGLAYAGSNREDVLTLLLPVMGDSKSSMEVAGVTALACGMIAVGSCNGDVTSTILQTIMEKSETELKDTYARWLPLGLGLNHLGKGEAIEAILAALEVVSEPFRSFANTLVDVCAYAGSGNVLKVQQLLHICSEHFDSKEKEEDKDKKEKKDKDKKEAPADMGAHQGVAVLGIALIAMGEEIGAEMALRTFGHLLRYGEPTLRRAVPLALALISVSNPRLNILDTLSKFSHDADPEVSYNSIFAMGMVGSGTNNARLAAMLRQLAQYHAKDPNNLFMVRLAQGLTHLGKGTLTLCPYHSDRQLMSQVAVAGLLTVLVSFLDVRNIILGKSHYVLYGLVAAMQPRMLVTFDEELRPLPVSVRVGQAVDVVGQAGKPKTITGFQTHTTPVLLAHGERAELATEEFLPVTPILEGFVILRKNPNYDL
UniProt P35998: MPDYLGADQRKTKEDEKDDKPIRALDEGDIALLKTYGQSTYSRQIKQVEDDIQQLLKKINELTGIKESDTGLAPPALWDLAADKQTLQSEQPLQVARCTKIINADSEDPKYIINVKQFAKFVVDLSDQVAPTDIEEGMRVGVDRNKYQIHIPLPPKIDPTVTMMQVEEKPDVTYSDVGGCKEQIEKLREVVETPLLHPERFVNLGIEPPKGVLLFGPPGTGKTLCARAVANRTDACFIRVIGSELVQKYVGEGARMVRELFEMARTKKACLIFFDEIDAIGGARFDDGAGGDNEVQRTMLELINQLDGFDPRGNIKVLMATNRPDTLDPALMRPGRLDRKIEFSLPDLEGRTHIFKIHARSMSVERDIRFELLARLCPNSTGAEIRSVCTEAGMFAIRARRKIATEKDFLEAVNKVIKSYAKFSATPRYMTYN
UniProt P25788: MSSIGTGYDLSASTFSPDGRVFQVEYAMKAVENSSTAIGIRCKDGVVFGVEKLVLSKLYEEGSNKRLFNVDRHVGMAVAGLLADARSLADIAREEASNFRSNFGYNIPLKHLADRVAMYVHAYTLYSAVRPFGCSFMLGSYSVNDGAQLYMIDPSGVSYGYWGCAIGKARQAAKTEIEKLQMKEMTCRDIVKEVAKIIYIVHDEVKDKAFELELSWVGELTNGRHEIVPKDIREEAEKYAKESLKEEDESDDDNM

- binding [1]: binds
- binding [2]: binds
- binding [3]: binds
- binding [4]: binds
- binding [5]: binds
B1: ZFAND5/ZNF216, recombinant wild type (protein, UniProt O76080 1-213)
chain: MAQETNQTPGPMLCSTGCGFYGNPRTNGMCSVCYKEHLQRQQNSGRMSPMGTASGSNSPTSDSASVQRADTSLNNCEGAAGSTSEKSRNVPVAALPVTQQMTEMSISREDKITTPKTEVSEPVVTQPSPSVSQPSTSQSEEKAPELPKPKKNRCFMCRKKVGLTGFDCRCGNLFCGLHRYSDKHNCPYDYKAEAAAKIRKENPVVVAEKIQRI

Reference: publication doi:10.1101/2023.05.09.540094
